This assay has as its target T1, Myc-TRAF2 (UniProt Q12933).
T1 sequence: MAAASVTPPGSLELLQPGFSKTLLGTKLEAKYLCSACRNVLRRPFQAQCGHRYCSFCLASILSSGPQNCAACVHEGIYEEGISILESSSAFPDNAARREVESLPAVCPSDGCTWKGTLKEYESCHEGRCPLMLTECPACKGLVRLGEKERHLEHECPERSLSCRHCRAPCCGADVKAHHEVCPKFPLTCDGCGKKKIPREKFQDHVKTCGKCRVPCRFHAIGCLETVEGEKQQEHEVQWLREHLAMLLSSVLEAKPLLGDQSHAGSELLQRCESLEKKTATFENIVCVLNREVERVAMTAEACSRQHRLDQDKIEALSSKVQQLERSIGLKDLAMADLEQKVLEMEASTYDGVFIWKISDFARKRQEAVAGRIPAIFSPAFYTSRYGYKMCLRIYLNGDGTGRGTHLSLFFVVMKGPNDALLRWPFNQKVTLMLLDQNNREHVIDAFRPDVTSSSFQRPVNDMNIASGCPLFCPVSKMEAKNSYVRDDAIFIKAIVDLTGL
The experiment in a line: co-IP; 293T cells co-transfected with the two tagged proteins, 10 uM MG132 overnight before harvest; EBC lysis buffer (50 mM Tris pH 8.0, 120 mM NaCl, 0.5% NP-40); 1 mg lysate with anti-tag antibody (FLAG, HA or Myc) overnight at 4°C; five washes with NETN buffer (100 mM NaCl, 0.5% NP-40); western blot. Background: A western blot detects proteins with antibodies after separation by electrophoresis.

Results are given in words; binding and its absence hold for the method and conditions named. In cells and extracts the contact can be indirect. A result given as binding can be weak or reduced; the word gives no strength. Sequences can lack the tags named with a protein.

Take FLAG-DAB2IP S847A: the binding entry is on record as “binds”.

On to FLAG-DAB2IP (wild-type), for which the binding result is “binds”.

Source of the values: paper PMC4102811.
